Test results published in publication PMC12420792.

Protein sequences, listed by entry. Tags and fused reporters are not part of them. Lines headed by an entry give the natural chain unless they say otherwise; changes in a name come on top.
UniProt P59280: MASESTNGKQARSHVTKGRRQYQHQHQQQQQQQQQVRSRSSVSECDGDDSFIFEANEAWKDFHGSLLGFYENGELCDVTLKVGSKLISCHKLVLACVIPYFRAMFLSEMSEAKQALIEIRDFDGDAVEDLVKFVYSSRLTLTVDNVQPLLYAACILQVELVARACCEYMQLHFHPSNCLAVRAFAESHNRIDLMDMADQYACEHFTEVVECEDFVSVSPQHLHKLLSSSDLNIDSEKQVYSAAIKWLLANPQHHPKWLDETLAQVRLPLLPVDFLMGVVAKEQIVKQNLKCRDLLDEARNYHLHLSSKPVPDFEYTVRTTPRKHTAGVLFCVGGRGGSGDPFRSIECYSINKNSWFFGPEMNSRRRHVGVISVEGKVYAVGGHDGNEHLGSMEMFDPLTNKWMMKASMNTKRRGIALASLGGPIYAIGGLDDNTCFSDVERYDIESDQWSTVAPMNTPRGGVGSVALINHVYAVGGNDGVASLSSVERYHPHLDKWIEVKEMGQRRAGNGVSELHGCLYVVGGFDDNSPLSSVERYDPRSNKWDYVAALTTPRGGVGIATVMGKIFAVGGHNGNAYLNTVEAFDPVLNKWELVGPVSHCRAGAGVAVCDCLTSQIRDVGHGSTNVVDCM

Target: T1, ZAR1-FLAG (mouse) (UniProt Q80SU3)
T1 sequence: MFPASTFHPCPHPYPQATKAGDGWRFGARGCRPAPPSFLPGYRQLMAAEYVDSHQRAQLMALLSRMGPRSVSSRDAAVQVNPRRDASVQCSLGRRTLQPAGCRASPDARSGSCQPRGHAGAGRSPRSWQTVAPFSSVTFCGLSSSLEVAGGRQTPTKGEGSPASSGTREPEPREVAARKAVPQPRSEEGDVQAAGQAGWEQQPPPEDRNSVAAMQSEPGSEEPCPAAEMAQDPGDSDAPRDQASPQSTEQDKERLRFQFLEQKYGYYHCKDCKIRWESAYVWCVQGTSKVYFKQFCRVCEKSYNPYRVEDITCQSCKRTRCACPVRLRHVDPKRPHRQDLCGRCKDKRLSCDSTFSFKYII
Test: co-IP; HeLa cells co-transfected, 36 h; NP40 lysis buffer with protease inhibitors; FLAG-beads or HA-beads, 4 °C, 2 h; four washes with lysis buffer; blots with anti-FLAG or anti-HA

binding: binds
Substance: KLHL8 BTB domain truncation (from UniProt P59280)

Results are given in words; binding and its absence hold for the method and conditions named. Binding seen in cells or lysates may run through a third protein. Binding calls can cover weak binding; strength is not graded here. Sequences can lack the tags named with a protein.
